This is one part of the list.
These sequences were tested against OsWRKY34 (Oryza sativa, UniProt Q0JBA9 1-250) (assay: protein-binding microarray (RPBM); PBS, 2% BSA, 51.3 ng/ul salmon testes DNA, 50 uM zinc acetate, 200 nM TF, 25 C, 1 h; high values mean tight binding). Details: protein: recombinant; tags: N-terminal polyhistidine and DsRed monomer fusion (pET32a); label: CyDye5-dUTP incorporated in the synthesized complementary strand; 3' TTTTT single-stranded linker to array surface; dsDNA, one strand shown.
Outline: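 Ni–NTA purification followed expression in E. coli BL21-CodonPlus of transcription factors fused N-terminally to a polyhistidine tag and DsRed. At 200 nM in PBS with 2% BSA, salmon testes DNA and 50 µM zinc acetate, the protein was incubated for 1 h at 25 °C with a custom Agilent array that had been primer-extended with Cy5-dUTP and blocked with 2% BSA. After washing, the array was read on an Axon 4000B scanner. The binding signal is per-feature fluorescence intensity in arbitrary units.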

Chains of the proteins cited; added tags and fusions are not shown.
UniProt Q0JBA9, entry or part of it: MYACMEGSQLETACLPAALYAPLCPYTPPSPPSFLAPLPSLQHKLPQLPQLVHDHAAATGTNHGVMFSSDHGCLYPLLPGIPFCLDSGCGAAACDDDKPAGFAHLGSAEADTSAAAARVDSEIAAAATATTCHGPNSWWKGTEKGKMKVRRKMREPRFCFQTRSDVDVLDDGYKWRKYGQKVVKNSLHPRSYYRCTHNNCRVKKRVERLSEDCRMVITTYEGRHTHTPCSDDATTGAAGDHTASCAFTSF

Row | Sequence | binding signal
1 | CGCTAAATTTGTCTTTTTTATATCTCGATGTGTGAGTTGACGGAGTCACCTAGTGCAG | 8640 fluorescence intensity (a.u.)
2 | CTCTCCAGCCGTTTGACCAGACCATACCTGGCCAATTTACCGGAGTCACCTAGTGCAG | 9010 fluorescence intensity (a.u.)
3 | ATTGTTCATCTTTACAACATCACCCTTTTTGGATCACCACCGGAGTCACCTAGTGCAG | 9440 fluorescence intensity (a.u.)
4 | GCCCGTTCTCTCTCTCGCCTACGCCTTCCTCTCTTTTTCTCGGAGTCACCTAGTGCAG | 11300 fluorescence intensity (a.u.)
5 | GGAAATTTTGGCAACAACACATTGATCACATTCTACCAAACGGAGTCACCTAGTGCAG | 8200 fluorescence intensity (a.u.)
6 | ATCTTAGATTTTCCCAGACATACCATCTGACACTTTGCAACGGAGTCACCTAGTGCAG | 8630 fluorescence intensity (a.u.)
7 | AGTTCTTCTATGTTTAGCATGCAAATAGCCTCGTATCATACGGAGTCACCTAGTGCAG | 9900 fluorescence intensity (a.u.)
8 | CTCTCTCCAATCTCCATCTCTCTGTCTGATTTGTAATCTTCGGAGTCACCTAGTGCAG | 16500 fluorescence intensity (a.u.)
9 | GTAGAGGAGGGGACGGGGTTGCTTTTTATAGGCACAAGGGCGGAGTCACCTAGTGCAG | 8300 fluorescence intensity (a.u.)
10 | ATTCCTCGGTGTTATTCTTTCTGATCTTCCTTAACCAATACGGAGTCACCTAGTGCAG | 10400 fluorescence intensity (a.u.)
11 | CCTGCTATGGATTGGTTGGGATATTTTCATGAGATCTCTTCGGAGTCACCTAGTGCAG | 8670 fluorescence intensity (a.u.)
12 | CCAATCTCATCGTTACAGGATCTATGGGTTCTTCCTTATCCGGAGTCACCTAGTGCAG | 8950 fluorescence intensity (a.u.)
13 | TCTGAGGGCGGGGCGACTGCTACATCTAAGGCCGGGGTGACGGAGTCACCTAGTGCAG | 12500 fluorescence intensity (a.u.)
14 | TGAGTTTATTTTTTACATGGTTGGTTCCTGTGAGTTCCTACGGAGTCACCTAGTGCAG | 9040 fluorescence intensity (a.u.)
15 | ACTTACTTTCTCCGTTTCATCATGTAAGTCATTCTAGCATCGGAGTCACCTAGTGCAG | 11600 fluorescence intensity (a.u.)
16 | AAATTTGTATAGACGTTTGCTTTTAACTTAGTCCTAAATTCGGAGTCACCTAGTGCAG | 9130 fluorescence intensity (a.u.)
17 | ATATTTGACCAGAAATTAACGCTGCTGATGCGAGGTCAAACGGAGTCACCTAGTGCAG | 8550 fluorescence intensity (a.u.)
18 | CCTATCTCCTTCGTCTCTCTCTCTCAACTTCCACCACCGCCGGAGTCACCTAGTGCAG | 8100 fluorescence intensity (a.u.)
19 | AAGCTAATCCAATCCCCAGCTATCTATCTAGCTCGATCCACGGAGTCACCTAGTGCAG | 8580 fluorescence intensity (a.u.)
20 | GTCATGTATATCATTGTTTGGTCCCTACTGTTGCTAGTTGCGGAGTCACCTAGTGCAG | 8560 fluorescence intensity (a.u.)
21 | TCTATTCTCCAGTCAATACCAACTCGCCCCGAATCGATTCCGGAGTCACCTAGTGCAG | 9200 fluorescence intensity (a.u.)

Row | Sequence | binding signal
22 | CGTTACTCCCGACATGCTTCACTGCTACATCTATATCTATCGGAGTCACCTAGTGCAG | 15400 fluorescence intensity (a.u.)
23 | CTTCGTATCTCTTTTGGTTATTTATTTTACAACTTTCAAGCGGAGTCACCTAGTGCAG | 9860 fluorescence intensity (a.u.)
24 | GGCTAACTTATGCCTTTTATCATTTTGTTGGTCATGATGTCGGAGTCACCTAGTGCAG | 8960 fluorescence intensity (a.u.)
25 | TCTCTTTGCTATCTCTACTTGCACATGTCATACATCTAGACGGAGTCACCTAGTGCAG | 9940 fluorescence intensity (a.u.)
26 | TTGCAATATCTGAAATTCTATTGACCATCTTGACTCTGTCCGGAGTCACCTAGTGCAG | 8080 fluorescence intensity (a.u.)
27 | ATAATTTATGTGTGACTATCTATCTATCTTTATCTATCTACGGAGTCACCTAGTGCAG | 8330 fluorescence intensity (a.u.)
28 | CGCGTCGCGTCACCATGCCAAGCTGTCCCAACCGTACACGCGGAGTCACCTAGTGCAG | 8760 fluorescence intensity (a.u.)
29 | TCTGCACCCAAAAGCCTCCTTCTTCTTCACTTGTCCTTGTCGGAGTCACCTAGTGCAG | 9940 fluorescence intensity (a.u.)
30 | AATTTTGTCTGGTTTTTCTATCGTTTACTACGGTACCGTGCGGAGTCACCTAGTGCAG | 8300 fluorescence intensity (a.u.)
31 | TAGTGTCTCTGCTCTCTGTCGGGTTGGTTCCTGCCTCTCGCGGAGTCACCTAGTGCAG | 8080 fluorescence intensity (a.u.)
32 | ATGCATGCTCGATCACACACACACACACGTTGTTGTTATCCGGAGTCACCTAGTGCAG | 8740 fluorescence intensity (a.u.)
33 | GTTGTCCTAGTCATCGGACGCCGCCCACCTACCCGACTACCGGAGTCACCTAGTGCAG | 9920 fluorescence intensity (a.u.)
34 | CCATCCCCTGCTTCGCCGGTCCAGGTCGGCTCAATCTCCTCGGAGTCACCTAGTGCAG | 9850 fluorescence intensity (a.u.)
35 | TTTTTTTTTTTTATGGGGTCCTGTGGGCGGAGTAGAACACCGGAGTCACCTAGTGCAG | 11200 fluorescence intensity (a.u.)
36 | ATTCATAAAATTCTGCCGCCTTCTTTTATTTCCTCACTTTCGGAGTCACCTAGTGCAG | 9960 fluorescence intensity (a.u.)
37 | GGACAGTAAAAAAAAACACAATTTGACCACGTTGACCAATCGGAGTCACCTAGTGCAG | 11700 fluorescence intensity (a.u.)
38 | AACACTCAACTAATCATACGCTGATGACTCACCCTTTTTTCGGAGTCACCTAGTGCAG | 9593 ± 67.9 fluorescence intensity (a.u.)
39 | TCTTCTCGCTCTCCTTTCGCTATTAACCTTCTCGACGCCGCGGAGTCACCTAGTGCAG | 8170 fluorescence intensity (a.u.)
40 | ACTCTGCTCTTATCTTTATAATTTCTTTAATTAATTAATTCGGAGTCACCTAGTGCAG | 10300 fluorescence intensity (a.u.)
41 | CACTATAAATTATCACCACCTCATTCCCGCCATGTCTCACCGGAGTCACCTAGTGCAG | 14900 fluorescence intensity (a.u.)
42 | CTTTCCTATGCATGGTGCATTATATTTCCTCTCTGCAATACGGAGTCACCTAGTGCAG | 8490 fluorescence intensity (a.u.)

Some of the entries above, reformatted.
ATTGTTCATCTTTACAACATCACCCTTTTTGGATCACCACCGGAGTCACCTAGTGCAG
  binding signal: 9440 fluorescence intensity (a.u.)
TGAGTTTATTTTTTACATGGTTGGTTCCTGTGAGTTCCTACGGAGTCACCTAGTGCAG
  binding signal: 9040 fluorescence intensity (a.u.)

Source: PMC7819943, “Rice protein-binding microarrays: a tool to detect cis-acting elements near promoter regions in rice”
